Results deposited as PubChem BioAssay AID1259285 (Sanger Institute, 2017)
This is a random part of 794 reagents. 20 of them (2.5%) were called active. 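Calls rest on the drug-free arm alone and ignore synergy scores; viability ratios seem to be capped at 1.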 Not all columns of the deposit are shown. The record does not give: the amount of reagent, the time to read-out.

Purpose: 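Kinases needed for HCC56 growth and kinases whose loss boosts drug effects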 (primary screen)
Cell system: human HCC56 colorectal cancer cells
Reagent: siRNA pool against human genes
Conditions: DMSO vehicle, or anchor drug BYL719 at 1 µM, cetuximab at 5 µg/ml, or trametinib at 10 nM
Detection: 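Viability as a ratio to non-targeting pool wells, averaged over replicates and turned into a robust z-score; synergy scores with BYL719, cetuximab or trametinib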
Reading the numbers: viability robust z-score, no drug: higher = more viable cells, weaker knock-down effect
Rule for the call: 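a knock-down counts as essential if its viability z-score without drug is under -3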
Calls: active = essential without drug; inactive = no change without drug

For PRKCI (protein kinase C iota) the deposit lists viability robust z-score, no drug 0.458; inactive. Silencing of CSNK1A1L (casein kinase 1 alpha 1 like) resulted in: viability robust z-score, no drug 0.458; inactive. Against KIT (KIT proto-oncogene, receptor tyrosine kinase), the values are viability robust z-score, no drug 0.458; inactive. CDC42BPB (CDC42 binding protein kinase beta) scored viability robust z-score, no drug 0.458; inactive. Silencing of EPHB2 (EPH receptor B2) resulted in: viability robust z-score, no drug 0.458; inactive. Against CAMK1 (calcium/calmodulin dependent protein kinase I), the entry reads viability robust z-score, no drug 0.458; inactive.

With knock-down of PRKCE (protein kinase C epsilon), the screen gave viability robust z-score, no drug -1.55; inactive. MAP3K13 (mitogen-activated protein kinase kinase kinase 13) showed viability robust z-score, no drug 0.458; inactive. After knock-down of JAK3 (Janus kinase 3) the results were viability robust z-score, no drug 0.458; inactive. Depletion of TPK1 (thiamin pyrophosphokinase 1) came out at: viability robust z-score, no drug -0.63; inactive. After knock-down of EIF2AK4 (eukaryotic translation initiation factor 2 alpha kinase 4), the record shows viability robust z-score, no drug 0.458; inactive. CKS1B (CDC28 protein kinase regulatory subunit 1B) showed viability robust z-score, no drug 0.458; inactive.

Silencing of MPP1 (MAGUK p55 scaffold protein 1) resulted in: viability robust z-score, no drug 0.458; inactive. With knock-down of SMC1A (structural maintenance of chromosomes 1A), the record shows viability robust z-score, no drug -1.9; inactive.

Sorted by “viability robust z-score, no drug” (ascending): some entries from above.
TPK1 (thiamin pyrophosphokinase 1) → viability robust z-score, no drug = -0.63; Call = inactive
JAK3 (Janus kinase 3) → viability robust z-score, no drug = 0.458; Call = inactive
EIF2AK4 (eukaryotic translation initiation factor 2 alpha kinase 4) → viability robust z-score, no drug = 0.458; Call = inactive
CKS1B (CDC28 protein kinase regulatory subunit 1B) → viability robust z-score, no drug = 0.458; Call = inactive
MPP1 (MAGUK p55 scaffold protein 1) → viability robust z-score, no drug = 0.458; Call = inactive

Continued:
After knock-down of VRK1 (VRK serine/threonine kinase 1) the results were viability robust z-score, no drug 0.458; inactive. For SMG1 the deposit lists viability robust z-score, no drug 0.0554; inactive. With knock-down of TRPM6 the results were viability robust z-score, no drug 0.458; inactive. NEK8 (NIMA related kinase 8) gave viability robust z-score, no drug 0.458; inactive. After knock-down of BCOR (BCL6 corepressor) the results were viability robust z-score, no drug 0.458; inactive. For THNSL1 (threonine synthase like 1) the deposit lists viability robust z-score, no drug 0.458; inactive.

After knock-down of EFNA5 (ephrin A5) the results were viability robust z-score, no drug 0.458; inactive. For SRPK3 (SRSF protein kinase 3) the deposit lists viability robust z-score, no drug 0.458; inactive. Knock-down of MAP3K6 (mitogen-activated protein kinase kinase kinase 6) gave: viability robust z-score, no drug 0.458; inactive. Knock-down of ALDH18A1 (aldehyde dehydrogenase 18 family member A1) gave: viability robust z-score, no drug 0.458; inactive. PRKACA (protein kinase cAMP-activated catalytic subunit alpha) gave viability robust z-score, no drug -0.554; inactive. Against YES1 (YES proto-oncogene 1, Src family tyrosine kinase), the values are viability robust z-score, no drug 0.32; inactive.

After knock-down of GNE, the record shows viability robust z-score, no drug 0.458; inactive. For CRIM1 (cysteine rich transmembrane BMP regulator 1), the entry reads viability robust z-score, no drug 0.458; inactive.
